In patent publication US20040204561A1 (priority 2002, published 2004):

Experiment: peptide made by a vendor
Details: whole synthesis, HPLC

AEAEAKAKAEAEAKAK (N-terminal glycine linker with bbDTPA chelator; Targeted aggregate peptide)
purity (crude or final not stated): 90%

Where a sequence shows no end group, the ends are not given.
